Experimental data: patent publication US20080207496A1, “ORGANIC COMPOUND” (priority 2003, published 2008)
Read-outs that look alike come from different tables or passages of the source.

Key:
[1] = Phase I and II studies in patients with advanced cancer; assay type: in vivo, human; settings: oral
[2] = tested on: Peripheral blood mononuclear cells (PBMCs); settings: ConA induced PBMC proliferation
[3] = tested on: IL-2 production by CD3+ T cells; settings: at greater concentrations (above 0.5 mM as printed)
[4] = tested on: IFN-gamma production by CD3+ T cells; settings: at greater concentrations (above 0.5 mM as printed)
[5] = tested on: Peripheral blood mononuclear cells (PBMCs); test: cells; settings: Homo sapiens, PBMC
lymphocytes = test: cells; settings: Lymphocyte, read-out: IC50, allogeneic cell induced lymphocyte proliferation
[6] = tested on: TNF-alpha production by CD3+ T cells; test: cells; settings: Homo sapiens, T-cell, 6 h, read-out: IC50, TNF-alpha production by CD3+ T cells

For CO[C@@H]1[C@H](N(C)C(=O)c2ccccc2)C[C@H]2O[C@]1(C)n1c3ccccc3c3c4c(c5c6ccccc6n2c5c31)C(=O)NC4 [Compound I, midostaurin], the safety / toxicity [1] was “safe with minimal toxicity”, the “inhibitory effects in combination with CsA” value [2] was “additive” and the “IC50, IL-2 production by CD3+ T cells” value [3] was “low micromolar range”. For the same molecule, the “IC50, IFN-gamma production by CD3+ T cells” value [4] was “low micromolar range”, the IC50 ([5]; read-out: IC50, ConA induced PBMC proliferation, Compound I alone) was about 400 nM and the IC50 ([5]; read-out: IC50, ConA induced PBMC proliferation, with 50 ng/ml CsA) was 60 nM. For the same molecule, the IC50 ([5]; read-out: IC50, lectin induced lymphocyte proliferation, Example 5, one range stated for lectin and allogeneic cell induced proliferation) was 250 to 400 nM, the IC50 (lymphocytes) was 250 to 400 nM and the IC50 [6] was 500 nM.
